{
  "source": "paper PMC4616163",
  "about": "“Inverse relationship between chitobiase and transglycosylation activities of chitinase-D from Serratia proteamaculans revealed by mutational and biophysical analyses” (Scientific Reports, 2015)",
  "test_system": "SpChiD mutant E153A",
  "assay": "DSC ligand-induced thermal stability of E153A with CHOS DP2–6",
  "type": "binding, Serratia proteamaculans",
  "conditions": "E153A alone or with 1 mM ligand",
  "experimental": "DSC measurements were carried out on a MicroCal VP-DSC (MicroCal LLC, Northampton, MA, USA). SpChiD and mutant E153A were dialyzed against 20 mM potassium phosphate buffer, pH 8.0. The dialysate was used as the reference. Protein samples (0.5 mg/mL) were heated from 10–70 °C at a scan rate of 30°/h to assess the effect of ligand binding on thermal unfolding. Mutant E153A was pre-incubated for 1 h with 1 mM of each ligand (DP2–6) before scanning. Sample and reference solutions were degassed prior to scanning to eliminate bubbling effects. Baseline reproducibility was verified by multiple scans, and the reversibility of protein unfolding was monitored by scanning the sample twice. Buffer scans were subtracted from thermograms obtained in the presence or absence of CHOS before further analysis. Absolute and excess heat capacities were analyzed using a non-two-state fit of the thermogram in Origin v7.0.",
  "data": [
    {"smiles": "CC(=O)N[C@H]1[C@H](O[C@H]2[C@H](O)[C@@H](NC(C)=O)C(O)O[C@@H]2CO)O[C@H](CO)[C@@H](O)[C@@H]1O", "note": "(stereo partly drawn) [DP2]", "values": [
      {"measurement": "ΔHC Transition-I", "value": "798.5 ± 7.14", "unit": "kcal/mol"},
      {"measurement": "ΔHC Transition-II", "value": "22.03 ± 4.1", "unit": "kcal/mol"},
      {"measurement": "ΔHC/ΔHv Transition-I", "value": 7.49},
      {"measurement": "ΔHC/ΔHv Transition-II", "value": 0.04},
      {"measurement": "ΔHv Transition-I", "value": "106.5 ± 1.07", "unit": "kcal/mol"},
      {"measurement": "ΔHv Transition-II", "value": "499.5 ± 92.1", "unit": "kcal/mol"}
    ]},
    {"smiles": "CC(=O)N[C@H]1[C@H](O[C@H]2[C@H](O)[C@@H](NC(C)=O)C(O)O[C@@H]2CO)O[C@H](CO)[C@@H](O[C@@H]2O[C@H](CO)[C@@H](O)[C@H](O)[C@H]2NC(C)=O)[C@@H]1O", "note": "(stereo partly drawn) [DP3]", "values": [
      {"measurement": "ΔHC Transition-I", "value": "395.1 ± 49.3", "unit": "kcal/mol"},
      {"measurement": "ΔHC Transition-II", "value": "556.6 ± 46.4", "unit": "kcal/mol"},
      {"measurement": "ΔHC/ΔHv Transition-I", "value": 4.53},
      {"measurement": "ΔHC/ΔHv Transition-II", "value": 3.36},
      {"measurement": "ΔHv Transition-I", "value": "87.17 ± 3.71", "unit": "kcal/mol"},
      {"measurement": "ΔHv Transition-II", "value": "165.3 ± 6.23", "unit": "kcal/mol"}
    ]},
    {"smiles": "CC(=O)N[C@H]1[C@H](O[C@H]2[C@H](O)[C@@H](NC(C)=O)C(O)O[C@@H]2CO)O[C@H](CO)[C@@H](O[C@@H]2O[C@H](CO)[C@@H](O[C@@H]3O[C@H](CO)[C@@H](O)[C@H](O)[C@H]3NC(C)=O)[C@H](O)[C@H]2NC(C)=O)[C@@H]1O", "note": "(stereo partly drawn) [DP4]", "values": [
      {"measurement": "ΔHC Transition-I", "value": "361.6 ± 38.7", "unit": "kcal/mol"},
      {"measurement": "ΔHC Transition-II", "value": "643.0 ± 35.0", "unit": "kcal/mol"},
      {"measurement": "ΔHC/ΔHv Transition-I", "value": 5.09},
      {"measurement": "ΔHC/ΔHv Transition-II", "value": 4.19},
      {"measurement": "ΔHv Transition-I", "value": "70.95 ± 3.63", "unit": "kcal/mol"},
      {"measurement": "ΔHv Transition-II", "value": "153.2 ± 4.33", "unit": "kcal/mol"}
    ]},
    {"smiles": "CC(=O)N[C@H]1[C@H](O[C@H]2[C@H](O)[C@@H](NC(C)=O)[C@H](O[C@H]3[C@H](O)[C@@H](NC(C)=O)C(O)O[C@@H]3CO)O[C@@H]2CO)O[C@H](CO)[C@@H](O[C@@H]2O[C@H](CO)[C@@H](O[C@@H]3O[C@H](CO)[C@@H](O)[C@H](O)[C@H]3NC(C)=O)[C@H](O)[C@H]2NC(C)=O)[C@@H]1O", "note": "(stereo partly drawn) [DP5]", "values": [
      {"measurement": "ΔHC Transition-I", "value": "537.9 ± 61.8", "unit": "kcal/mol"},
      {"measurement": "ΔHC Transition-II", "value": "500.5 ± 59.8", "unit": "kcal/mol"},
      {"measurement": "ΔHC/ΔHv Transition-I", "value": 4.34},
      {"measurement": "ΔHC/ΔHv Transition-II", "value": 2.46},
      {"measurement": "ΔHv Transition-I", "value": "123.8 ± 3.94", "unit": "kcal/mol"},
      {"measurement": "ΔHv Transition-II", "value": "203.4 ± 10.2", "unit": "kcal/mol"}
    ]},
    {"smiles": "CC(=O)N[C@H]1[C@H](O[C@H]2[C@H](O)[C@@H](NC(C)=O)[C@H](O[C@H]3[C@H](O)[C@@H](NC(C)=O)C(O)O[C@@H]3CO)O[C@@H]2CO)O[C@H](CO)[C@@H](O[C@@H]2O[C@H](CO)[C@@H](O[C@@H]3O[C@H](CO)[C@@H](O[C@@H]4O[C@H](CO)[C@@H](O)[C@H](O)[C@H]4NC(C)=O)[C@H](O)[C@H]3NC(C)=O)[C@H](O)[C@H]2NC(C)=O)[C@@H]1O", "note": "(stereo partly drawn) [DP6, chitohexaose]", "values": [
      {"measurement": "ΔHC Transition-I", "value": "379.6 ± 36.7", "unit": "kcal/mol"},
      {"measurement": "ΔHC Transition-II", "value": "234.5 ± 35.2", "unit": "kcal/mol"},
      {"measurement": "ΔHC/ΔHv Transition-I", "value": 2.14},
      {"measurement": "ΔHC/ΔHv Transition-II", "value": 0.76},
      {"measurement": "ΔHv Transition-I", "value": "176.8 ± 4.67", "unit": "kcal/mol"},
      {"measurement": "ΔHv Transition-II", "value": "306.9 ± 22.1", "unit": "kcal/mol"}
    ]}
  ]
}
